# Measurements from PubChem BioAssay AID2685 (National Center for Advancing Translational Sciences (NCATS), 2010).
# The other results are listed elsewhere or left out. Further columns of the screen follow, without active or inactive calls. The list favours compounds with an active or inconclusive main result. Words in brackets tell the shape of the fitted curve; partial curves, single points and poor fits give uncertain potencies.
# Assay: qHTS Assay for Lipid Storage Modulators in Drosophila S3 Cells;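 as to cell number change: cells counted by Cell Tracker Red CMTPX staining in the red channel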
# Conditions: BODIPY lipid droplet fluorescence, 18-24 h; for cell number change: measured here: cell count max response, cells fed with added oleic acid
# How it was run: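 Laser-scanning cytometry quantifies lipid droplet accumulation (500–530 nm total intensity; droplet/cell object ratio) in oleic acid-fed (400 uM added) Drosophila S3 cells treated with a concentration series. 20 uM Triacsin C defined 100% inhibition.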
# [1] = measured here: lipid fluorescence (Fed channel) AC50, cells fed with added oleic acid
# [2] = measured here: cell number channel AC50, cells fed with added oleic acid
Structure (SMILES),cell number change [%],AC50 [1],AC50 [2]
CC(C)COC(=O)c1ccccc1N1C(=O)C2C3CCC(C3)C2C1=O (stereo not drawn),-0.958,"4.61 µM [rising, single point]",–
COc1ccc(C(c2nnnn2C(C)(C)C)N2CCN(c3nc4ccccc4s3)CC2)cc1 (stereo not drawn),-17.5,"0.731 µM [falling, full curve, poor fit]",–
Cc1cccc(CNc2ccc(S(=O)(=O)N3CCCCC3)cc2)c1,-13.2,"29.1 µM [falling, single point]",–
CCOc1cccc(-c2c(C(=O)N/N=C(\C)c3cccnc3)nnn2-c2nonc2N)c1,-19.2,"6.51 µM [falling, partial curve, poor fit]","1.84 µM [falling, partial curve]"
CCc1ccc(/C=C/C(=O)c2cc(Br)ccc(=O)c2O)cc1,-31,–,"25.9 µM [falling, single point]"
COc1ccc(CCNC(=O)c2cnn3c(C(F)F)cc(C)nc23)cc1OC,-7.01,"29.1 µM [rising, single point]",–
O=C(O)c1ccc(NC(=O)C2(c3ccccc3)CCOCC2)cc1,-7.42,"0.731 µM [falling, full curve, poor fit]",–
Cc1ccc2[nH]c(=O)c(C3=NN(C(=O)CCC(=O)O)C(c4cccs4)C3)c(-c3ccccc3)c2c1 (stereo not drawn),-33,–,"16.4 µM [falling, single point]"
CC(C)c1ccc(CN(C)CC(O)c2ccccc2)cc1 (stereo not drawn),16.5,"6.51 µM [rising, single point]",–
Cc1nc2cc(C(=O)OCC(=O)NC3CCS(=O)(=O)C3)ccc2n1-c1ccccc1 (stereo not drawn),-35.9,"5.8 µM [falling, single point]","8.2 µM [falling, partial curve]"
CCc1ccc(C2CC(c3ccccc3Cl)Nc3nc(N)nn32)cc1 (stereo not drawn),–,"2.91 µM [rising, partial curve]",–
CCCC1=[N+](CC(=O)c2ccc(Br)cc2)CCn2cccc21,-0.213,"0.116 µM [falling, full curve]","0.116 µM [falling, full curve, poor fit]"
Cc1ccc(-n2[nH]c3c4c(ccc3c2=O)C(=O)c2ccccc2C4=O)cc1,-34.8,"0.651 µM [rising, single point]","23.1 µM [falling, partial curve, poor fit]"
N#CCC(=O)Nc1ccc(C(=O)NNC(=O)CCN2CCN(c3ccccc3)CC2)cc1,18.1,"6.51 µM [rising, single point]",–
Cc1cccc(C)c1OCC(=O)Nc1cccc(C(=O)O)c1,-12.4,–,–
COc1cc(SC)ccc1C(=O)Nc1nccs1,6.63,"23.1 µM [rising, single point]",–
NS(=O)(=O)c1ccc(CCNC(=O)CNC(=O)c2ccc(Oc3ccccc3)cc2)cc1,15,"4.11 µM [rising, partial curve]",–
COc1cc2c(cc1O)CCN(C(=O)CSc1nncn1C)[C@@H]2C,3.62,"3.66 µM [rising, single point]","0.82 µM [rising, single point]"
O=C(NCCC1=CCCCC1)c1cc(COc2c(F)cccc2F)on1,0.306,–,–
Cc1ccc(-c2nnc(SCCC(=O)N3CCOCC3)o2)cc1,21,"7.31 µM [rising, partial curve]",–
COc1cc(NS(=O)(=O)c2ccc(NC(=O)/C(=C\c3ccccc3OC)NC(=O)c3ccccc3)cc2)nc(OC)n1,8.51,"0.731 µM [falling, full curve]",–
C[C@H](CCC(=O)NCC(=O)O)[C@H]1CC[C@H]2C3[C@H](O)C[C@@H]4C[C@H](O)CC[C@]4(C)[C@H]3C[C@H](O)[C@]12C (stereo partly drawn),-28.2,"0.164 µM [falling, full curve]",–
Cc1cccc([C@@H]2[C@@H]3C(=O)N(Cc4ccccc4)C(=O)[C@@H]3[C@]3(Cc4ccc(Cl)cc4)C(=O)N(c4cccc(Cl)c4)C(=O)N23)c1,–,"0.00461 µM [falling, full curve, poor fit]",–
CCCC(=O)NCCc1cc2c(C)ccc(C)c2[nH]c1=O,8.98,"4.11 µM [rising, partial curve, poor fit]",–
CC(=O)Nc1ccc(/C=N/NC(=O)CCN2CCN(c3ccccc3)CC2)cc1,-22.4,"29.1 µM [falling, single point]",–
Cc1cc(C)nc(SCC(=O)c2c(N)n(C)c(=O)n(C)c2=O)n1,32.2,–,"23.1 µM [rising, partial curve]"
C=CCNC(=S)N1CCN(c2cccc(C(F)(F)F)c2)CC1,–,"6.51 µM [rising, single point]",–
CCOc1ccc(NC(=O)CNC(=O)Cc2ccccc2)cc1,18.1,"13 µM [rising, partial curve]",–

# Structural class: those above containing fluorine (3)
Structure (SMILES),cell number change [%],AC50 [1],AC50 [2]
COc1ccc(CCNC(=O)c2cnn3c(C(F)F)cc(C)nc23)cc1OC,-7.01,"29.1 µM [rising, single point]",–
O=C(NCCC1=CCCCC1)c1cc(COc2c(F)cccc2F)on1,0.306,–,–
C=CCNC(=S)N1CCN(c2cccc(C(F)(F)F)c2)CC1,–,"6.51 µM [rising, single point]",–

# The results go on:

Structure (SMILES),cell number change [%],AC50 [1],AC50 [2]
O=C(CN(c1ccc(Cl)cc1)S(=O)(=O)c1ccccc1)N1CCN(c2ccccc2)CC1,85.3,"20.6 µM [rising, partial curve]","29.1 µM [rising, single point]"
Oc1c(C2=NCCNC(C(F)(F)F)=C2)ccc2ccccc12,-51.8,"18.4 µM [falling, partial curve]","16.4 µM [falling, partial curve]"
Cc1c(OC(C)C(=O)NCc2ccccn2)ccc2c3c(c(=O)oc12)CCCC3 (stereo not drawn),-43.3,"6.51 µM [falling, partial curve]","1.03 µM [falling, full curve, poor fit]"
CCCCCCNC(=O)CCNS(=O)(=O)c1ccc(C)cc1,-19.6,"29.1 µM [falling, partial curve, poor fit]",–
COC(=O)N1N=C(c2ccccc2)CC1(O)C(F)(F)F (stereo not drawn),–,"20.6 µM [rising, single point]",–
COc1ccccc1C(=O)NCCC(=O)N1CCN(S(=O)(=O)c2ccc(Cl)cc2)CC1,-24,"0.461 µM [falling, full curve, poor fit]",–
CC1(C)CC(=O)CC(C)(C)N1OC(=O)c1ccncc1,-9.17,"29.1 µM [falling, single point]",–
O=C(CN1CCN(c2ncccn2)CC1)N(Cc1ccccc1)c1ccc(F)cc1,50.2,"3.66 µM [rising, single point]","10.3 µM [rising, partial curve]"
CCC(=O)c1ccc(OCC(=O)Nc2ccccc2C(=O)NC2CC2)cc1,-1.3,"32.6 µM [rising, single point]",–
CC(OC(=O)C(C)Oc1ccccc1)C(=O)Nc1ccc(S(=O)(=O)N2CCCCC2)cc1 (stereo not drawn),-51,"13 µM [falling, partial curve, poor fit]","16.4 µM [falling, single point]"
CCOC(=O)c1c(C)[nH]c(C(=O)COC(=O)c2c(CC)noc2C)c1C,-30,–,"2.31 µM [rising, single point]"
COCc1cc(=O)[nH]c(Nc2nc(C)c3cc(OC)ccc3n2)n1,72.5,"4.61 µM [rising, full curve]","5.8 µM [rising, full curve]"
CS(=O)(=O)N1CCC(C(=O)NNC(=O)Nc2ccc(F)c(Cl)c2)CC1,18.8,–,"0.651 µM [rising, full curve, poor fit]"
N#Cc1nc(COc2ccccc2)oc1N1CCCCCC1,-0.884,"0.58 µM [falling, single point]",–
Cc1ccc(CNC(=O)CSc2nc(=O)n3cccc(C)c3n2)cc1,–,–,"1.03 µM [rising, partial curve]"
CN(C(=O)COC(=O)CCC(=O)c1ccccc1)c1c(N)n(Cc2ccccc2)c(=O)[nH]c1=O,10.5,"0.366 µM [falling, full curve, poor fit]",–
CN(C)c1cccc(C(=O)OCC(=O)NCC2CCCO2)c1 (stereo not drawn),-27.4,"0.116 µM [falling, single point]","2.31 µM [falling, full curve, poor fit]"
CCCCCCCC(=O)Nc1cc(C(=O)NCCC)ccc1N1CCC2(CC1)CC(c1ccccc1)=NO2,68.6,"16.4 µM [falling, partial curve]","20.6 µM [rising, partial curve]"
O=C(N1CCCCC1)C1(c2ccccc2)CCOCC1,-14.8,–,–
O=C(Nc1ccc2nc3n(c(=O)c2c1)CCCC3)c1ccccc1F,-12.7,"0.0058 µM [falling, full curve, poor fit]",–
Cc1cc(C)cc(NC(=O)COc2ccc3c(C)c(Cc4ccccc4)c(=O)oc3c2)c1,13.3,–,–
O=[N+]([O-])c1ccc(S(=O)(=O)N/N=C/c2ccsc2)cc1,-8.22,"29.1 µM [rising, single point]",–
CC1(C)c2ssc(=S)c2-c2ccccc2N1C(=O)CSC1=NCCS1,-27.9,"6.51 µM [rising, single point]",–
COC(=O)c1ccccc1NC(=O)CN1CCC(C)CC1,15.3,–,–
CC(=O)Nc1cccc(C(=O)Nc2ccc(S(=O)(=O)N3CCCCC3)cc2)c1,-21.4,–,–
CSc1ccccc1C(=O)C1CCCN(C(=O)c2ccc(N3CCOCC3)cc2)C1 (stereo not drawn),-45.1,"29.1 µM [falling, single point]","23.1 µM [falling, single point]"
CC(C)CCN(C)C1CCN(S(=O)(=O)c2cccc(C(F)(F)F)c2)CC1,3.94,"29.1 µM [rising, single point]",–
